Patent US20230235052A1 (GRACELL BIOTECHNOLOGIES SHANGHAI, published 2023)
These are yes or no findings as the source states them, for the method shown. Some entries that bind do so weakly or less than the wild type.

T1: human CD19 antigen (human, UniProt P15391 20-291, limits assumed)
T1 sequence (looked up): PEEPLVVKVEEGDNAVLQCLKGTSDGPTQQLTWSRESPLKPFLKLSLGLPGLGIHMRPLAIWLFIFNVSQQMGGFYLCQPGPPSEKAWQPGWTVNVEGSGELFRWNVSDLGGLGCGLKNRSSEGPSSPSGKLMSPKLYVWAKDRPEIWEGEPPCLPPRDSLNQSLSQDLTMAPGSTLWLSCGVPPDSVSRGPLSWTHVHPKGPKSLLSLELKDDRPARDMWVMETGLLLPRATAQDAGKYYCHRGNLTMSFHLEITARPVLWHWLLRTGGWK


Molecular target: T1, human CD19 antigen
Experiment: flow cytometry of CAR-T cells carrying the scFv (VL-VH) of this antibody as CAR, stained with CD19 antigen, percent CAR+ cells

Row | binding | Binder
1 | binds | humanized CD19 antibody VH1 + VL1 (antibody, V domains shown, also called Antibody No. 1) VH: QVQLQESGPGLVKPSQTLSLTCTVSGVSLPDYGVSWIRQPPGKGLEWIGVIWGSETTYYNSALKSRVTISVDTSKNQFSLKLSSVTAADTAVYYCARHYYYGGSYAMDYWGQGTTVTVSS VL: DIQMTQSPSSLSASVGDRVTITCRASQDISKYLNWYQQKPGKAPKLLIYHTSRLHSGVPSRFSGSGSGTDFTFTISSLQPEDIATYYCQQGNTLPYTFGGGTKLEIK
2 | binds | humanized CD19 antibody VH1 + VL3 (antibody, V domains shown, also called Antibody No. 3) VH: QVQLQESGPGLVKPSQTLSLTCTVSGVSLPDYGVSWIRQPPGKGLEWIGVIWGSETTYYNSALKSRVTISVDTSKNQFSLKLSSVTAADTAVYYCARHYYYGGSYAMDYWGQGTTVTVSS VL: DIQMTQSPSSLSASVGDRVTITCRASQDISKYLNWYQQKPGKAPKLLIYHTSRLHSGVPSRFSGSGSGTDYTLTISSLQPEDIATYYCQQGNTLPYTFGGGTKLEIK
